Measured values: PubChem BioAssay AID445 (National Center for Advancing Translational Sciences (NCATS), 2006)
The list shows a part of the results. Further columns of the screen follow, without active or inactive calls. Compounds called inactive in the main read-out are mostly missing here. Potencies come from curve fits of mixed quality, noted in brackets.

Test: IkB Signaling
Settings: ABC-DLBCL IkBa-CBG/CBR dual luciferase ratio (green luciferase fused to IkBa over red control in OCI-Ly3 lymphoma cells), 4 h
Summary of the method: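 Curves were fitted separately to fusion (green), unfused (red) and ratio luminescence, then classed by r2, magnitude and activity. Cells: OCI-Ly3, 4 h compound plus doxycycline at 37C; 10 uM MG-132 defined full response.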

[1] = measured here: control luc red channel unless noted

In the case of `COc1ccc(NC(=O)CCS(=O)(=O)c2nc(-c3cccs3)cc(C(F)(F)F)n2)cc1`, the AC50 [1] is reported as 2.51 µM [falling, partial curve].
In the case of `Cc1nn2c(CN(C(=O)c3ccco3)c3ccccc3)nnc2c2ccccc12`, the AC50 [1] is reported as 12.6 µM [falling, partial curve].
In the case of `COc1cccc(C2c3c(oc4cc(C)cc(C)c4c3=O)C(=O)N2CCc2ccc(OC)c(OC)c2)c1` (configuration not stated), the AC50 [1] is reported as 12.6 µM [falling, single point].
For `CCn1c(SCc2ccccc2C)nc(=O)c2c(C(=O)OC)cc(C3CC3)nc21`, the AC50 [1] was 39.8 µM [falling, single point].
In the case of `COc1ccccc1CNC(=O)CCC1N=C2c3ccccc3N=C(SCC(=O)Nc3ccc(F)cc3)N2C1=O` (configuration not stated), the AC50 [1] is reported as 7.94 µM [falling, partial curve].
With `CCc1ccc(NS(=O)(=O)c2ccc3oc(=O)c4ncn(CC)c4c3c2)cc1` the AC50 [1] was 25.1 µM [falling, partial curve].
For `COc1ccc(-n2c(Cc3ccccc3)nnc2SCc2nc(-c3cccs3)no2)cc1`, the AC50 [1] was 31.6 µM [falling, single point].
With `Cc1ccc(-c2cc(C(=O)NCc3cnn(C)c3C)c3ccccc3n2)cc1C` the AC50 [1] was 39.8 µM [falling, partial curve].
For `O=C(C1Cc2ccccc2CN1S(=O)(=O)c1ccc(F)cc1)N1CCCCCC1` (configuration not stated), the AC50 [1] was 39.8 µM [falling, single point].
With `N#Cc1ccc(S(=O)(=O)N2CCC(Oc3cccc(C(F)(F)F)c3)CC2)cc1` the AC50 [1] was 15.8 µM [falling, single point].
In the case of `O=C(NCc1cccs1)c1nn(-c2ccccc2Cl)nc1CO`, the AC50 [1] is reported as 31.6 µM [falling, single point].
With `CC1=C(C(=O)Nc2ccccc2)C(c2ccccc2C)n2nc(SCC(=O)c3ccc(C)cc3)nc2N1` (configuration not stated) the AC50 [1] was 6.31 µM [rising, full curve, poor fit].
With `Cc1[nH]n(-c2ccccc2)c(=O)c1C(c1cc(Cl)ccc1O)c1c(C)[nH]n(-c2ccccc2)c1=O` the AC50 [1] was 31.6 µM [falling, single point].
In the case of `CCOC(=O)C1=C(C)NC(SCC(=O)Nc2cc(C)on2)=C(C#N)C1c1cccs1` (configuration not stated), the AC50 [1] is reported as 15.8 µM [falling, partial curve].
With `O=C(NCCc1csc(-c2ccc(C(F)(F)F)cc2)n1)c1ccc(F)c(F)c1` the AC50 [1] was 25.1 µM [falling, partial curve].
In the case of `CCOc1ccc(-c2cc(CCCC(=O)NCCc3ccc(Cl)cc3)no2)cc1`, the AC50 [1] is reported as 3.98 µM [falling, partial curve].
With `COC(=O)c1c(-c2cccs2)csc1NC(=O)c1cccc(Cl)c1` the AC50 [1] was 0.316 µM [rising, full curve].
With `COC(=O)c1c(-c2cccs2)csc1NC(=O)c1ccc(Br)cc1` the AC50 [1] was 39.8 µM [falling, single point].
In the case of `CCN(c1cccc(C)c1)S(=O)(=O)c1ccc(-n2cccn2)cc1`, the AC50 [1] is reported as 25.1 µM [falling, partial curve].
For `Cc1nc(Nc2ccncc2)c2oc3ccccc3c2n1`, the AC50 [1] was 25.1 µM [rising, partial curve] [measured here: IkB-luc green channel].
In the case of `Cc1ccc(CN(Cc2ccco2)C(=O)c2ccc(Cl)cc2Cl)cc1`, the AC50 [1] is reported as 15.8 µM [falling, partial curve].
In the case of `Cc1cccc(NC(=O)CSc2ncc(-c3ccc(Br)cc3)[nH]2)c1`, the AC50 [1] is reported as 31.6 µM [rising, single point] [measured here: IkB-luc green channel].
With `Cc1cccc(-c2nc(CCNC(=O)COc3ccccc3)cs2)c1` the AC50 [1] was 39.8 µM [falling, single point].
For `CN(C)CCNC(=O)c1ccc(-n2c(-c3ccccc3)cc3c2CCCCC3)cc1`, the AC50 [1] was 15.8 µM [falling, partial curve].
With `Oc1ccc(-c2[nH]ncc2-c2ccc(Cl)cc2)c(O)c1` the AC50 [1] was 10 µM [falling, partial curve].
With `CC(C)Oc1ccc(CN2CCc3nc(Nc4ccc5c(c4)OCCO5)ncc3C2)cc1` the AC50 [1] was 20 µM [falling, partial curve].
For `O=C1c2ccccc2S(=O)(=O)N1CC(O)Cn1c2ccccc2c2ccccc21` (configuration not stated), the AC50 [1] was 10 µM [falling, partial curve].
In the case of `Fc1ccc2nc(Nc3nc4c(s3)CCCC4)sc2c1`, the AC50 [1] is reported as 15.8 µM [falling, partial curve].
With `Cc1ccc(C(=O)Nc2ccccc2C(=O)OCc2cc(=O)n3nc(C(C)C)sc3n2)cc1` the AC50 [1] was 0.2 µM [rising, full curve, poor fit].
With `Cc1ccc(C)c(NC(=O)CN(C)S(=O)(=O)c2cccc3cccnc23)c1` the AC50 [1] was 3.98 µM [rising, full curve].
With `Cc1nc2nc(Cc3ccccc3)[nH]n2c(=O)c1Cl` the AC50 [1] was 12.6 µM [falling, partial curve].
For `CCOc1ccccc1NC(=O)C1CCC(CNS(=O)(=O)c2ccc3c(c2)CCCC(=O)N3)CC1` (configuration not stated), the AC50 [1] was 20 µM [falling, single point].
For `Cn1c(C(=O)NCCN2CCc3ccccc3C2)cc2c(=O)n(C)c3ccccc3c21`, the AC50 [1] was 39.8 µM [rising, single point] [measured here: IkB-luc green channel].
For `COC(=O)c1ccccc1NC(=O)C1=CC(c2ccc3c(c2)OCO3)=NS(=O)(=O)N1C`, the AC50 [1] was 3.16 µM [falling, single point].
With `Fc1ccc(-c2noc3ncnc(Nc4ccc(F)cc4F)c23)cc1` the AC50 [1] was 1 µM [rising, single point].
For `O=C(CC1N=C2c3ccccc3N=C(SCc3ccc(F)cc3)N2C1=O)NC1CCCCC1` (configuration not stated), the AC50 [1] was 0.00631 µM [rising, full curve, poor fit].
With `CCOc1ccc(CCNC(=O)c2cccc(Nc3nc4ccccc4nc3-n3nc(C)cc3C)c2)cc1OCC` the AC50 [1] was 20 µM [falling, partial curve].
For `Cc1ccc(-n2nc3c(N4CCC(C(=O)NC5CCC(C)CC5)CC4)nnc(C)c3c2C)cc1` (configuration not stated), the AC50 [1] was 12.6 µM [falling, partial curve].
In the case of `CC1=C(C(N)=O)C(c2cccc(O)c2)n2ncnc2N1` (configuration not stated), the AC50 [1] is reported as 1.26 µM [falling, full curve].
For `Cc1ccc2sc(N(Cc3cccnc3)C(=O)Cc3ccccc3)nc2c1C`, the AC50 [1] was 39.8 µM [falling, single point].
In the case of `CC(=O)c1ccccc1OCC(O)CN1CCN(C(c2ccccc2)c2ccccc2)CC1` (configuration not stated), the AC50 [1] is reported as 15.8 µM [falling, partial curve].
In the case of `Cc1ccc(C(=O)c2cn(Cc3ccccc3F)c3cc4c(cc3c2=O)OCCO4)cc1`, the AC50 [1] is reported as 39.8 µM [falling, single point].
For `O=C(c1cc(-c2ccccc2O)on1)N1CCc2ccccc2C1`, the AC50 [1] was 39.8 µM [rising, single point] [measured here: IkB-luc green channel].
For `O=C(COc1ccc(Cl)cc1)N(Cc1ccco1)Cc1ccco1`, the AC50 [1] was 39.8 µM [falling, single point].
For `COc1ccccc1CNC(=O)CCC(=O)N1CC(C)Sc2ccccc21` (configuration not stated), the AC50 [1] was 25.1 µM [falling, partial curve].
In the case of `Oc1ccccc1-c1nnc(SCCN2CCOCC2)n1Cc1ccccc1`, the AC50 [1] is reported as 39.8 µM [falling, single point].
With `Cc1cccc(N2CCN(C(=O)CN3C(=O)COc4ccc(S(=O)(=O)N5CCC(C)CC5)cc43)CC2)c1C` the AC50 [1] was 12.6 µM [falling, partial curve].
In the case of `O=S(=O)(Nc1cccc(C(F)(F)F)c1)c1ccc(NS(=O)(=O)c2ccc3c(c2)OCCO3)cc1`, the AC50 [1] is reported as 15.8 µM [falling, partial curve].
With `COc1ccc(C(=O)Nc2cccc(-c3cn4ccsc4n3)c2)c(OC)c1` the AC50 [1] was 20 µM [falling, single point].
For `Cc1csc2nc(COC(=O)c3cccc(NC(=O)c4cccc(Cl)c4)c3)cc(=O)n12`, the AC50 [1] was 0.794 µM [falling, full curve].
For `CCOc1ccc(C2=NC(c3ccncc3)=Nc3ccc(C)cc3N2)cc1OCC`, the AC50 [1] was 15.8 µM [falling, partial curve].
In the case of `COCc1cc(C)nc2sc(C(=O)Nc3ccccc3O)c(N)c12`, the AC50 [1] is reported as 3.98 µM [rising, partial curve].
With `Cc1ccc(OCCn2cc(C(=O)c3cccs3)c3ccccc32)cc1` the AC50 [1] was 5.01 µM [falling, full curve].
For `COc1ccc(N(Cc2ccccc2)C(=O)c2nc(S(C)(=O)=O)ncc2Cl)cc1`, the AC50 [1] was 3.16 µM [falling, partial curve].
In the case of `Cc1cccc(N2CCN(C(=O)Cn3nc(C)c4sc5ccccc5c4c3=O)CC2)c1C`, the AC50 [1] is reported as 7.94 µM [falling, full curve].
With `COc1cccc(C(=O)Nc2ccc(-n3nncc3-c3ccccc3)cc2)c1OC` the AC50 [1] was 25.1 µM [falling, single point].
For `COc1ccc(CNC(=O)Cn2c(=O)nc(-c3ccccc3)c3cc(Cl)ccc32)cc1OC`, the AC50 [1] was 39.8 µM [falling, partial curve, poor fit].
In the case of `CCn1c2ccccc2c2nnc(N3CCN(c4cccc(Cl)c4)CC3)nc21`, the AC50 [1] is reported as 12.6 µM [falling, partial curve].
For `O=c1cnc2cnc(Nc3ccccc3)nc2n1Cc1cccs1`, the AC50 (measured here: IkB-luc green channel) was 3.16 µM [falling, partial curve] and the AC50 (measured here: control luc red channel) was 3.98 µM [falling, partial curve].
In the case of `CCc1ccc(NC(=O)CCc2c(C)nc3nc(-c4cc(OC)cc(OC)c4)nn3c2C)cc1`, the AC50 [1] is reported as 7.94 µM [falling, partial curve].
In the case of `Cc1ccc(N2CCn3c2nc2c3c(=O)n(C/C=C/c3ccccc3)c(=O)n2C)cc1C`, the AC50 [1] is reported as 12.6 µM [falling, partial curve].
